Results as given in publication PMC10706632.
Like-named read-outs stand apart in the source and are kept apart here. No constants are given. Whether binding was seen depends on the method and setting. Binding seen in cells or lysates may run through a third protein. Here binding means that the protein was enriched with, or labelled near, the bait; the list need not be complete.

The chains behind the UniProt entries cited, without tags or fusion partners.
UniProt F6ZDS4: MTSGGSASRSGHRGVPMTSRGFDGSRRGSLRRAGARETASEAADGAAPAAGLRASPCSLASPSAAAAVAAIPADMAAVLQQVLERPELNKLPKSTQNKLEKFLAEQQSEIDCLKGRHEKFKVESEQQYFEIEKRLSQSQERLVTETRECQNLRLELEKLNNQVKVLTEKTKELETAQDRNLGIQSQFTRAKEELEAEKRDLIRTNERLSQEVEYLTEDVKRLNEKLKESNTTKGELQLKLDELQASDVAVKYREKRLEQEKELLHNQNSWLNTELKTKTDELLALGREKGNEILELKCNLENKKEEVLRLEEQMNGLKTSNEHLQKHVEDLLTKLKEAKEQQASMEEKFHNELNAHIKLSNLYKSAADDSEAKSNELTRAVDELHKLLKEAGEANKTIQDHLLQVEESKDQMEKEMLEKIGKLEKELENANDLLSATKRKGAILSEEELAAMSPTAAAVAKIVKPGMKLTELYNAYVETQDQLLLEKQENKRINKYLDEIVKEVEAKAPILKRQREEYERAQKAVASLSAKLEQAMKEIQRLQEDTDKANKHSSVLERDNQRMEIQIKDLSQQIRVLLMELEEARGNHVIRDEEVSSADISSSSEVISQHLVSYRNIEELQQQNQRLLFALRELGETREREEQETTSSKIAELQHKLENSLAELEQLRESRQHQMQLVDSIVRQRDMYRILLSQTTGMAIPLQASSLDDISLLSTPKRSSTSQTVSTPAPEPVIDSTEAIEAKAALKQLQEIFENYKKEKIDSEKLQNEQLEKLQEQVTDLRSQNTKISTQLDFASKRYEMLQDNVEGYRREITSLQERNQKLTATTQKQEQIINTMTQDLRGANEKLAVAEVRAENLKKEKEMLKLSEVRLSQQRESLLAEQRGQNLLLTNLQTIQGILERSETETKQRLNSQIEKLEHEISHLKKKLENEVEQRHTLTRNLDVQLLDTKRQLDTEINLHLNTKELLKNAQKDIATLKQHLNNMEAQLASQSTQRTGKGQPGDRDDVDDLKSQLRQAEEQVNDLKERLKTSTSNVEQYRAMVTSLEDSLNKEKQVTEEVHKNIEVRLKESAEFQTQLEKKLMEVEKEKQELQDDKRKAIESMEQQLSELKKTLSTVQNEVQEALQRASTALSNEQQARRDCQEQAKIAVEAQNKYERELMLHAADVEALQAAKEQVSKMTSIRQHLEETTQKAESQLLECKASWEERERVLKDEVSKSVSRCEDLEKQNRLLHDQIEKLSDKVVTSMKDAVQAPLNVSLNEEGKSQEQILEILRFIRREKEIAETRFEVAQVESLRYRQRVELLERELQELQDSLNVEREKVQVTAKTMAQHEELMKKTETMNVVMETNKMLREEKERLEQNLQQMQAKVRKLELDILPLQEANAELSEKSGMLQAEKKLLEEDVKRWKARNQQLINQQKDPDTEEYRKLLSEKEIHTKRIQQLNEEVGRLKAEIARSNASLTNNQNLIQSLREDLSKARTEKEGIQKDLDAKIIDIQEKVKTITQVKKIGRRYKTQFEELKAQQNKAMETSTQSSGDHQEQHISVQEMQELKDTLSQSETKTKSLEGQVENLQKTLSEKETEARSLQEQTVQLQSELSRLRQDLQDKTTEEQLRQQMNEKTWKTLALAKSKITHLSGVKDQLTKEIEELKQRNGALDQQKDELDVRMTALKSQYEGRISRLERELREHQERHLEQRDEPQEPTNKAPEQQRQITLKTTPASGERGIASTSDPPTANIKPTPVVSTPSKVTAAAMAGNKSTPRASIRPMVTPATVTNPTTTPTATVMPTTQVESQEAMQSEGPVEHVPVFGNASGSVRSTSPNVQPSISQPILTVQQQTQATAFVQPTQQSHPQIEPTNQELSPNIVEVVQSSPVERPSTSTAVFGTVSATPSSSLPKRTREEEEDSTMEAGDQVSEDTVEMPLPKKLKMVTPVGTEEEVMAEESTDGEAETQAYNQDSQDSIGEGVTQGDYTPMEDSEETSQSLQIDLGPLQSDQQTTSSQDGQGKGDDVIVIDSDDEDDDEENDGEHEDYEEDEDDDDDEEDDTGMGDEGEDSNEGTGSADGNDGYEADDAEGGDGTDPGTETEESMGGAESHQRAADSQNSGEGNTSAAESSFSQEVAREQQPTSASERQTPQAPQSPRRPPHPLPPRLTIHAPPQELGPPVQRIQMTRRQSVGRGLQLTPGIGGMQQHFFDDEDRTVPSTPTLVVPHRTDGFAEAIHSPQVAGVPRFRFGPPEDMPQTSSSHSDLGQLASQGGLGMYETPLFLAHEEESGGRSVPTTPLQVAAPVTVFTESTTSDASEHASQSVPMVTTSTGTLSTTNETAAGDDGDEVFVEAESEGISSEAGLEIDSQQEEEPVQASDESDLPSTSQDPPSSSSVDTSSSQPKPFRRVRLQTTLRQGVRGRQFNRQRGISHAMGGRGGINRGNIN
UniProt P63082: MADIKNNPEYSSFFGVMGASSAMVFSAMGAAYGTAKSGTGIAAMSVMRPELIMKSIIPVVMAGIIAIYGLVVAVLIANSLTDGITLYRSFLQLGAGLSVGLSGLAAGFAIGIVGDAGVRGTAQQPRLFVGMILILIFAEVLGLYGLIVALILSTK
UniProt Q8K019: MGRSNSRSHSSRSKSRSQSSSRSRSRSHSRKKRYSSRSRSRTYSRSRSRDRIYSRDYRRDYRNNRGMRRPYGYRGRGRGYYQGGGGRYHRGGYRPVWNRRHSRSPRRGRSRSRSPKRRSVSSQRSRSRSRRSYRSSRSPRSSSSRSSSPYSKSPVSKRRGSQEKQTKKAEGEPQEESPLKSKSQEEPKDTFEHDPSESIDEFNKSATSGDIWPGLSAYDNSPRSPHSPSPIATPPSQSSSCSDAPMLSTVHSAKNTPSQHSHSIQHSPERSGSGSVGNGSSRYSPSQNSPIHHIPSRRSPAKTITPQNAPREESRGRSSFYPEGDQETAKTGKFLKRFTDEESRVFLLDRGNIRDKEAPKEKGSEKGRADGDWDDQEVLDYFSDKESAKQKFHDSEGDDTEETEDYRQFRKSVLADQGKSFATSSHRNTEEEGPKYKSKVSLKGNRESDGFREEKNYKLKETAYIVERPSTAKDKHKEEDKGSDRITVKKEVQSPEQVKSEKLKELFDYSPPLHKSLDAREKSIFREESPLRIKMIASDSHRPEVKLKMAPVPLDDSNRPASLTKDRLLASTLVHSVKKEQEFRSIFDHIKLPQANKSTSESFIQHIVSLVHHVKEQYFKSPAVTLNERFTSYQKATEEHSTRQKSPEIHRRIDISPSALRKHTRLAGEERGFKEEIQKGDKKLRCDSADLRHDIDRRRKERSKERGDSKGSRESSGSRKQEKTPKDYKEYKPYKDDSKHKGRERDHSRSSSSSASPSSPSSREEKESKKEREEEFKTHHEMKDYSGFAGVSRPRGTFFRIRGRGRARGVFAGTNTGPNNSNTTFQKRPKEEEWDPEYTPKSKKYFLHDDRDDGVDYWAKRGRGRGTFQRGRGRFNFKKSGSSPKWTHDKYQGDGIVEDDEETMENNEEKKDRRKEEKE
UniProt P30658: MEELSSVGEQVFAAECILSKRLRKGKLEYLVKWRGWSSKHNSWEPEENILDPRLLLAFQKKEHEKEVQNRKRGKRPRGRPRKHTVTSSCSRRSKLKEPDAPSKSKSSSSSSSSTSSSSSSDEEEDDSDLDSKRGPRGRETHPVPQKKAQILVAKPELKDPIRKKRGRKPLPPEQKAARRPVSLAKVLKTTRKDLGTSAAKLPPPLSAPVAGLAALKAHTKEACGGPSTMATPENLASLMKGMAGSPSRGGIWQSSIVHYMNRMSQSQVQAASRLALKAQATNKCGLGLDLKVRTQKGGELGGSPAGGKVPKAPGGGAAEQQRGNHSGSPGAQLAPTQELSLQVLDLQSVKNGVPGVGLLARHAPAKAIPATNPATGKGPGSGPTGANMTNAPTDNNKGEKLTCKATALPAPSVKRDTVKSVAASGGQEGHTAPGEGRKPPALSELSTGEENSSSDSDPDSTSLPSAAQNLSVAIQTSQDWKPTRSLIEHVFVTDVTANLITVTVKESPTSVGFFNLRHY
UniProt P11440: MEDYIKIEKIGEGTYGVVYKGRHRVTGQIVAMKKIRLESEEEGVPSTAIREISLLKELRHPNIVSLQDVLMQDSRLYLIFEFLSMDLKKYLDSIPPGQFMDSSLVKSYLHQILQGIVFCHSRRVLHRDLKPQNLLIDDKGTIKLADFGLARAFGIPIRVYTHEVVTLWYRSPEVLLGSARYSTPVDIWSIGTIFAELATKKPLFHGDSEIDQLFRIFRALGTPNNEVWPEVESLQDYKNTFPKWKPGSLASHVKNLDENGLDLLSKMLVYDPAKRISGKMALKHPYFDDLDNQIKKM
UniProt Q3TKT4: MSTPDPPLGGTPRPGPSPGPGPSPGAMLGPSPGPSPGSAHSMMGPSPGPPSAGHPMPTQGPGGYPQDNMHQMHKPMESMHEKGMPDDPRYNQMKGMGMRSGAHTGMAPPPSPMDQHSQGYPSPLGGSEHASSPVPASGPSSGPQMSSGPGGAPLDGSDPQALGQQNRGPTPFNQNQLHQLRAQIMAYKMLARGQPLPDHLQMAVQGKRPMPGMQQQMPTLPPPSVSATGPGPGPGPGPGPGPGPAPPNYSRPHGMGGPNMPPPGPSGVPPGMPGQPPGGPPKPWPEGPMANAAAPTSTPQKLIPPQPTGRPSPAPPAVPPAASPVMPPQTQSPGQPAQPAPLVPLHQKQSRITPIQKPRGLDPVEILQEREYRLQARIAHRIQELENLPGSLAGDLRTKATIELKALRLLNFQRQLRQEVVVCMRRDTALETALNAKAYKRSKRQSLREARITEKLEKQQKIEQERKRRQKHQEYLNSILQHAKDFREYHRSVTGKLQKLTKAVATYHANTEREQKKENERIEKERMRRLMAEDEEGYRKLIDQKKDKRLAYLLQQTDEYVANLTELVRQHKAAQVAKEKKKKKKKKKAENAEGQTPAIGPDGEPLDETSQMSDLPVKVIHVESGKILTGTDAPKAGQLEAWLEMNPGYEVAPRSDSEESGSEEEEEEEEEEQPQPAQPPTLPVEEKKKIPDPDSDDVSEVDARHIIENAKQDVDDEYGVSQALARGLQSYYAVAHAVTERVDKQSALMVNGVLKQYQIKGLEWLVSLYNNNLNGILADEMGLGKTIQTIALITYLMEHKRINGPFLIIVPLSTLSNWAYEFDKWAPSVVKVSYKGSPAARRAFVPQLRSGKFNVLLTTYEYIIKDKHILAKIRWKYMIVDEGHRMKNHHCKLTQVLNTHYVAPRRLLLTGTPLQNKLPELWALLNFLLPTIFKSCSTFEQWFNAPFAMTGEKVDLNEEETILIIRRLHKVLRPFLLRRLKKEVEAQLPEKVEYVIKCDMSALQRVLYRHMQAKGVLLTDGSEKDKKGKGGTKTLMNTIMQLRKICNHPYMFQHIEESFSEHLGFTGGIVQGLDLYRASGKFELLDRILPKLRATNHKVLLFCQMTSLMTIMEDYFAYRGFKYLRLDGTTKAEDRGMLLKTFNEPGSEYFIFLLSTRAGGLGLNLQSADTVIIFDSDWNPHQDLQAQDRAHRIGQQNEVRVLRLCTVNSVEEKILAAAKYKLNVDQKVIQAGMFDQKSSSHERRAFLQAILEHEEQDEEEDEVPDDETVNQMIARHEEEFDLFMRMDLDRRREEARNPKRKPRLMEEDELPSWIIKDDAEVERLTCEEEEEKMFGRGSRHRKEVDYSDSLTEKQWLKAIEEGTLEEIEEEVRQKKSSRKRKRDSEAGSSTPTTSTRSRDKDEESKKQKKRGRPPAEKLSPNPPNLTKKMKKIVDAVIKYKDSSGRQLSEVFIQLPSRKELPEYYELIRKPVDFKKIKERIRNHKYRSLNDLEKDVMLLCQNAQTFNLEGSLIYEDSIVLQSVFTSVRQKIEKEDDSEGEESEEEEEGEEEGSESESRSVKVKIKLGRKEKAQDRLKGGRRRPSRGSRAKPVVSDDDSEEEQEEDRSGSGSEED
UniProt Q06831: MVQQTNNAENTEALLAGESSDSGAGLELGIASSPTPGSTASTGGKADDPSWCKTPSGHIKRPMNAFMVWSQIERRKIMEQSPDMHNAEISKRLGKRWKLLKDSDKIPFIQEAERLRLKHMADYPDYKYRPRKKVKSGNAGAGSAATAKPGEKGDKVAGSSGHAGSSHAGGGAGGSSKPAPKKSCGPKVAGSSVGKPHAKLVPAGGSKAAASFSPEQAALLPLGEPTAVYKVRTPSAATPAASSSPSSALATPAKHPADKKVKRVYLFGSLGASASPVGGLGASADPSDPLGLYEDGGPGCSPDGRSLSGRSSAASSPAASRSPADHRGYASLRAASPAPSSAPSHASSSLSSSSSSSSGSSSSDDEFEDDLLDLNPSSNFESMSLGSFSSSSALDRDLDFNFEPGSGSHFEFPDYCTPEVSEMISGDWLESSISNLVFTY

How the values were obtained:
Test in all cases: affinity purification with mass spectrometry; endogenous immunoprecipitation from SVZ-derived mouse NSPC lysates with Tpr or P-Tpr as bait (antibody on protein A Sepharose, 4 h, 4 °C; lysis buffer 1% Nonidet P-40, 150 mM NaCl, 1 mM EDTA, 20 mM Tris HCl pH 8.0); S-Trap, Q-Exactive Plus, MaxQuant label-free quantification; cut off log2 FC ≥ 1.0
[1] = target: translocated promoter region (Tpr) (mouse (endogenous in NSPCs)) (UniProt F6ZDS4)
[2] = target: phospho-Tpr (P-Tpr) (mouse (endogenous in NSPCs)) (UniProt F6ZDS4)
[3] = target: phospho-Tpr (P-Tpr) (mouse (endogenous in NSPCs)) (UniProt F6ZDS4); remark: listed apart in the source
[4] = target: translocated promoter region (Tpr) (mouse (endogenous in NSPCs)) (UniProt F6ZDS4); remark: listed apart in the source

Molecule | binding [1] | binding [3] | further results
Atp6v0c (from UniProt P63082 1-155) |  |  | binding [2]: binds
Bclaf1 (from UniProt Q8K019 1-919) |  |  | binding [2]: binds
CBX2 (from UniProt P30658 1-519) | binds |  | 
PCID2 (from UniProt Q8BFV2 1-399) | binds |  | 
RuvBl1 (from UniProt P60122 1-456) | binds |  | 
cyclin-dependent kinase 1 (Cdk1) (from UniProt P11440 1-297) (enzyme) |  |  | binding [2]: binds
Tpt1 (protein, UniProt P63028 1-172) MIIYRDLISHDELFSDIYKIREIADGLCLEVEGKMVSRTEGAIDDSLIGGNASAEGPEGEGTESTVVTGVDIVMNHHLQETSFTKEAYKKYIKDYMKSLKGKLEEQKPERVKPFMTGAAEQIKHILANFNNYQFFIGENMNPDGMVALLDYREDGVTPFMIFFKDGLEMEKC |  | binds | 
Cask (protein, UniProt O70589 1-926) MADDDVLFEDVYELCEVIGKGPFSVVRRCINRETGQQFAVKIVDVAKFTSSPGLSTEDLKREASICHMLKHPHIVELLETYSSDGMLYMVFEFMDGADLCFEIVKRADAGFVYSEAVASHYMRQILEALRYCHDNNIIHRDVKPHCVLLASKENSAPVKLGGFGVAIQLGESGLVAGGRVGTPHFMAPEVVKREPYGKPVDVWGCGVILFILLSGCLPFYGTKERLFEGIIKGKYKMNPRQWSHISESAKDLVRRMLMLDPAERITVYEALNHPWLKERDRYAYKIHLPETVEQLRKFNARRKLKGAVLAAVSSHKFNSFYGDPPEELPDFSEDPTSSGLLAAERAVSQVLDSLEEIHALTDCSEKDLDFLHSVFQDQHLHTLLDLYDKINTKSSPQIRNPPSDAVQRAKEVLEEISCYPENNDAKELKRILTQPHFMALLQTHDVVAHEVYSDEALRVTPPPTSPYLNGDSPESANGDMDMENVTRVRLVQFQKNTDEPMGITLKMNELNHCIVARIMHGGMIHRQGTLHVGDEIREINGISVANQTVEQLQKMLREMRGSITFKIVPSYRTQSSSCERDSPSTSRQSPANGHSSTNNSVSDLPSTTQPKGRQIYVRAQFEYDPAKDDLIPCKEAGIRFRVGDIIQIISKDDHNWWQGKLENSKNGTAGLIPSPELQEWRVACIAMEKTKQEQQASCTWFGKKKKQYKDKYLAKHNAVFDQLDLVTYEEVVKLPAFKRKTLVLLGAHGVGRRHIKNTLITKHPDRFAYPIPHTTRPPKKDEENGKNYYFVSHDQMMQDISNNEYLEYGSHEDAMYGTKLETIRKIHEQGLIAILDVEPQALKVLRTAEFAPFVVFIAAPTITPGLNEDESLQRLQKESDVLQRTYAHYFDLTIINNEIDETIRHLEEAVELVCTAPQWVPVSWVY |  | binds | 
Eny2 (protein, UniProt Q9JIX0 1-101) MVVSKMNKDAQMRAAINQKLIETGERERLKELLRAKLIECGWKDQLKAHCKEVIKEKGLEHVTVDDLVAEITPKGRALVPDSVKKELLQRIRTFLAQHASL |  |  | binding [4]: binds
Rag1 (protein, UniProt P15919 1-1040) MAASLPSTLSFSSAPDEIQHPQIKFSEWKFKLFRVRSFEKAPEEAQKEKDSSEGKPYLEQSPVVPEKPGGQNSILTQRALKLHPKFSKKFHADGKSSDKAVHQARLRHFCRICGNRFKSDGHSRRYPVHGPVDAKTQSLFRKKEKRVTSWPDLIARIFRIDVKADVDSIHPTEFCHDCWSIMHRKFSSSHSQVYFPRKVTVEWHPHTPSCDICFTAHRGLKRKRHQPNVQLSKKLKTVLNHARRDRRKRTQARVSSKEVLKKISNCSKIHLSTKLLAVDFPAHFVKSISCQICEHILADPVETSCKHLFCRICILRCLKVMGSYCPSCRYPCFPTDLESPVKSFLNILNSLMVKCPAQDCNEEVSLEKYNHHVSSHKESKETLVHINKGGRPRQHLLSLTRRAQKHRLRELKIQVKEFADKEEGGDVKAVCLTLFLLALRARNEHRQADELEAIMQGRGSGLQPAVCLAIRVNTFLSCSQYHKMYRTVKAITGRQIFQPLHALRNAEKVLLPGYHPFEWQPPLKNVSSRTDVGIIDGLSGLASSVDEYPVDTIAKRFRYDSALVSALMDMEEDILEGMRSQDLDDYLNGPFTVVVKESCDGMGDVSEKHGSGPAVPEKAVRFSFTVMRITIEHGSQNVKVFEEPKPNSELCCKPLCLMLADESDHETLTAILSPLIAEREAMKSSELTLEMGGIPRTFKFIFRGTGYDEKLVREVEGLEASGSVYICTLCDTTRLEASQNLVFHSITRSHAENLQRYEVWRSNPYHESVEELRDRVKGVSAKPFIETVPSIDALHCDIGNAAEFYKIFQLEIGEVYKHPNASKEERKRWQATLDKHLRKRMNLKPIMRMNGNFARKLMTQETVDAVCELIPSEERHEALRELMDLYLKMKPVWRSSCPAKECPESLCQYSFNSQRFAELLSTKFKYRYEGKITNYFHKTLAHVPEIIERDGSIGAWASEGNESGNKLFRRFRKMNARQSKCYEMEDVLKHHWLYTSKYLQKFMNAHNALKSSGFTMNSKETLGDPLGIEDSLESQDSMEF |  | binds | 
Glyr1 (protein, UniProt Q922P9 1-546) MAAVSLRLGDLVWGKLGRYPPWPGKIVNPPKDLKKPRGKKCFFVKFFGTEDHAWIKVEQLKPYHAHKEEMIKINKGKRFQQAVDAVEEFLRRAKGKDQTSSHTSADDKNRRNSSEERSRPNSGDEKRKLSLSEGKVKKNMGEGKKRVTSGSADRGSKCLKRAQEQSPRKRGRPPKDEKDLTIPESSTVKGMMAGPMAAFKWQPTATEPVKDADPHFHHFLLSQTEKPAVCYQAITKKLKICEEETGSTSIQAADSTAVNGSITPTDKKIGFLGLGLMGSGIVSNLLKMGHTVTVWNRTAEKEGARLGRTPAEVVSTCDITFACVSDPKAAKDLVLGPSGVLQGIRPGKCYVDMSTVDADTVTELAQVIVSRGGRFLEAPVSGNQQLSNDGMLVILAAGDRGLYEDCSSCFQAMGKTSFFLGEVGNAAKMMLIVNMVQGSFMATIAEGLTLAQVTGQSQQTLLDILNQGQLASIFLDQKCQNILQGNFKPDFYLKYIQKDLRLAIALGDAVNHPTPMAAAANEVYKRAKALDQSDNDMSAVYRAYIH |  | binds | 

Now from value to molecule, other results behind:

binding [1] | binding [3] | Molecule | further results
binds |  | Arid1a (from UniProt A2BH40 1-2283) | 
binds |  | Brg1 (from UniProt Q3TKT4 1-1613) | 
binds |  | Otx1 (from UniProt P80205 1-355) | 
binds |  | Sox2 (from UniProt P48432 1-319) | 
binds |  | Sox4 (from UniProt Q06831 1-440) | 
 | binds | Cc2d1b (protein, UniProt Q8BRN9 1-848) MPGPRPRKGPKTSGQGAETAKQLGLFVEFNPEDMLLGVDETEDDGDLEAELLALTGETASRSRKPAPKGQAPLPMAHIEKLAADCMRDVEEDEEEEGLEDDADLLTELQEVLGEDEEAGLLDGSEAASPDLCEEKTWDNTELPVEQAACQQAVPAAAQAGGPRGLQALLEERIRNYREAAASAKEAGEAAKARRCERGLKTLQSQLATVRKGGKICEDEIPPPVALGKRPPAPQERAIKNPEIDSPGPCAMEPGNLSQPESSLPAIAPLPDSDPDPQALLLARQREYKAAALDAKRAGDLDRARELMRIGKRFGTVLEALEKGQPVDLSGMPPAPADLKALPQASKASSATQGLSPAVEQMQPVMASDLPATPVAPAEPTTVLDALQQRLNKYREAGIQARANGDERKARMHDRIAKQYQDAVRAHQAGQKVDFAELPVPPGFPPIPGLEPRKGSEQDSVAATLATAQKLASEDAALVDDDEESDTPAQAPLAKKPAQTLVSPSHLLTEPKASSSKESLSPSVREQVTLLEARKLQYQRAALQAKRRQDLEQAKSHLRVAKSLEAQIIQARAGQPIDLSKVPSPLTDEEGDFILIHHEDLRLSQKAEEVYAQLQKMLQEQQAKCLLFSKQYMHQGNVAETTRFERLAEDRKKQLEILQLAQAQGLDPPSHHFELKTFQTVRIFSELNSTEMHLIIVRGMNLPAPPGVTPDDLDAFVRFEFHYPNSDQAQKSKTAVVKNTNSPEFEQVFKLNINRNHRGFRRVIQSKGIKFEIFHKGSFFRSDKLVGTAHLKLERLEKECEIREIMEVLDGRKPTGGKLEVKVRLREPLSSQDVQTVTENWLVLEPRGL | 
 | binds | Hmgb2 (protein, UniProt P30681 1-210) MGKGDPNKPRGKMSSYAFFVQTCREEHKKKHPDSSVNFAEFSKKCSERWKTMSAKEKSKFEDLAKSDKARYDREMKNYVPPKGDKKGKKKDPNAPKRPPSAFFLFCSENRPKIKIEHPGLSIGDTAKKLGEMWSEQSAKDKQPYEQKAAKLKEKYEKDIAAYRAKGKSEAGKKGPGRPTGSKKKNEPEDEEEEEEEEEEEDDEEEEEDEE | 
 | binds | Mri1 (enzyme, UniProt Q9CQT1 1-369) MTLEAIRYSPGSLQILDQLQLPEHCHYEALSSVQQASEAIRAMKVRGAPAIALVGCLSLAVELRAGAGGPGLAALVAFVRDQLRLLVAARPTAVNMARAARDLGQVAAQEAEREGATEETVRERVIRFAEDMLEKDLKDNRSIGDLGARHLLEQTNPRGGKVTVLTHCNTGALATAGYGTALGVIRSLHEMGRLEHTFCTETRPYNQGARLTAFELVYEQIPATLITDSMAAAAMAHRGVSAVVVGADRVVANGDTANKIGTYQLAIVAKHHGVPFYVAAPSSSCDLHLETGKEIVIEERPSQELTDLNGVRIAAQGIRVWNPAFDVTPHELITGGIITELGVFAPEELRGALSASVFSEGQTLDSPWV | 
